We go through 3 sequences from PMC7017467.

For at least one entry, the source does not settle the construct or the ends of the probe. For some of these results: A weaker result is weaker than the reference pair of the same experiment. For some of these results: At least one verdict rests on a figure or table, not on a statement of the authors.

Series [1] addresses DasR (Streptomyces verticillus ATCC 15003) (UniProt A0A7M1Y6D7). Nature of the series: EMSA. As to conditions: EMSA buffer (composition, pH and temperature not given), 30 min incubation, 6% native polyacrylamide gel, recombinant protein, protein details: C-terminal 6xHis (introduced by reverse primer), label: 5'-Cy5.
In another series the test system is BlmR. Nature of the series: EMSA. The conditions noted are these: EMSA buffer (composition, pH and temperature not given), 30 min incubation, 6% native polyacrylamide gel, recombinant protein, protein details: 6xHis. Background: A gel shift assay detects complexes by their altered migration in electrophoresis.

As to “ACCTTCTCCCTGGGCCGGGCTCTGTTAGATTGGTCTATACCACCCCAATCCCAAGATCGGCAGGCCCAGC (double strand) [PNagB]”, the binding result is listed as “binds” in series [1] and “binds more weakly” in series [1] (GlcN-6P (>100 mM), original shifted band lost, new shifted band appears).
For the sequence “CCGGACAGTTTCGCGCGTGGGGGTGGGAAAGGTCTAGTCCACTGTTCGACGGGTGCGGGATGGGGGCGCC (double strand) [PNagKA]”, the binding result in series [1] is “binds”; in series [1] (GlcN-6P (>50 mM), complex dissociates), “binds more weakly”.
For “TAAGCCCGAACCCGCAAGGATGACGAATTGCAAAATTGTGCAAGTCGCTACATGATGGTCCGGCTGTGCC (double strand) [PBlmR-1]”, the binding result with BlmR (GlcN-6P, no dissociation) is given as “binds”; in the series with BlmR (GlcNAc, no dissociation), “binds”; in the series with BlmR (no inducer), “binds”.
